Results from US20250295628A1 (priority 2022, published 2025).
For some assays here: The name of at least one read-out is uncertain. Some of these results come from one statement about several compounds together.

Tests used:
[1] = test system: cisplatin-treated New Zealand rabbits; assay: Attenuating effect on cisplatin toxicity in rabbits (Example 31); type: in vivo; conditions: cisplatin 4 mg/kg twice a week + 433 mg/kg test substance 5 times a week, up to 3 weeks
[2] = test system: U87 malignant glioma cells; assay: Inhibition of U87 malignant glioma cells by PENAO, composition 3-preparation and their combination (Example 35); type: cell-based; conditions: PENAO:composition 3-preparation 1:20, 1:50, 1:125, 1:312 for the combination

Structure (SMILES): CSCCC(C(=O)[O-])N(CC(O)C(O)C(O)C(O)CO)C(=S)[S][Na].[Na+] [Composition D3, N-(2,3,4,5,6-pentahydroxyhexyl)-(N-disubstitutedsodium formate)-L-sodium methionate]
- weight loss [1]: more than 20%

Structure (SMILES): CC(C)(SCC(=O)Nc1ccc([As](O)O)cc1)[C@H](N)C(=O)O [PENAO]
- inhibitory effect on U87 malignant glioma cells (IC50 test, FIG. 6) [2]: obvious inhibitory effect
